The target of this assay is T1, ABCF2, endogenous in A549 cells (human (endogenous in A549)) (UniProt Q9UG63).
T1 sequence: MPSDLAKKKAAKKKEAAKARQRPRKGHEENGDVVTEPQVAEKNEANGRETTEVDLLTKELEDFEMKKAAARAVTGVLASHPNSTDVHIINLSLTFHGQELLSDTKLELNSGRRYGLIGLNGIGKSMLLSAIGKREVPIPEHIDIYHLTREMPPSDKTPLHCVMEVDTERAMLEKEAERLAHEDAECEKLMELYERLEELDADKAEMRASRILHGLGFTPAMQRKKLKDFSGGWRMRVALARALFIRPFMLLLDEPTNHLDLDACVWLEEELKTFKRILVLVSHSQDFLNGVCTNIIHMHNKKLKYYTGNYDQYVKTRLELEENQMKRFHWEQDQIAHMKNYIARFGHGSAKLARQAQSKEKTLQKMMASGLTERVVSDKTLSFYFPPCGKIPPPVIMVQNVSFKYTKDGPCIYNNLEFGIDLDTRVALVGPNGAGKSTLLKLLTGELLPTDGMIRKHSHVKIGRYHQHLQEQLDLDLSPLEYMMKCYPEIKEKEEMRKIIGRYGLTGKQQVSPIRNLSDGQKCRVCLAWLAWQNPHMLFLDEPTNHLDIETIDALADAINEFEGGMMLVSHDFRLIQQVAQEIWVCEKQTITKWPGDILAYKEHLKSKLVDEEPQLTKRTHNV
Nature of the assay: co-IP.

These are yes or no findings as the source states them, for the method shown. Binding seen in cells or lysates may run through a third protein. Some results given as binding are weak or reduced against the parent protein; the word gives no strength.

For the substance “p53, endogenous in A549 cells (from UniProt P04637 1-393)”, the binding entry is given as “binds”.

The record behind these values is paper PMC13529201.
